Out of some 360,000 compounds screened, about 7,500 (2.1%) were called active. The shares of active, inactive and inconclusive entries below differ from those in the screen. Calls follow the shape of the dose curve; as a rule, active = well fitted inhibition curve with a large enough effect; inconclusive = small, poorly fitted or top-dose-only effect, or effect the other way; inactive = flat fitted curve, though single readings scatter. A potency beside an inconclusive call is a rough fit, not a confirmed value.
Test: Nrf2 qHTS screen for inhibitors; also: nearly all actives have a fitted effect of over 60% in size
Settings: A549 ARE-Fluc reporter, luciferase luminescence, 18-24 h; activity change, negative = inhibition: at 46 µM (top of the series)
Method in brief: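 Nrf2 activity is the BugLite luminescence, read 15 min after reagent at room temperature, following CellTiter-Fluor cytotoxicity readout (30 min, 37C). Compound titrations were applied for 18-24 h to 5000 A549 ARE_Fluc cells/well in 5% FBS OPTI-MEM.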
% is scaled to controls: 0 for no effect and ±100 for the full control effect; potency is read from the fitted curve at half-maximal effect.

| SMILES | Potency | activity change, negative = inhibition |
| --- | --- | --- |
| COc1cc(C)c(S(=O)(=O)NOCc2ccccc2)c(C)c1C | inconclusive: 23.1 µM [falling, single point] | – |
| O=C(c1ccc(-c2ccc(Cl)cc2Cl)o1)N1CCOCC1 | inconclusive: 1.16 µM [activator, full curve] | – |
| CCOc1ccc2cc(C#N)c(SCC(=O)OC)nc2c1 | inconclusive: 3.66 µM [activator, full curve] | – |
| C[C@@H]1CN([C@@H](C)CO)C(=O)c2cccc(NC(=O)Nc3ccccc3)c2O[C@H]1CN(C)C(=O)Nc1cccc2ccccc12 | inconclusive: 9.2 µM [falling, partial curve, poor fit] | – |
| O=C(/C=C/c1nc2ccccc2s1)N1CCCCCC1 | inconclusive: 14.6 µM [activator, partial curve] | – |
| CCC1CCCCN1CCCNC(=O)c1ccc2c(c1)N(Cc1ccc(Cl)cc1)C(=O)c1ccccc1S2(=O)=O (stereo unspecified) | – | inactive: 15.7% |
| Cc1[nH]n(-c2ccccc2)c(=O)c1/C=N/N1C(=O)c2ccc3c4c(ccc(c24)C1=O)CC3 | inconclusive: 18.4 µM [falling, single point] | – |
| CC(=O)Nc1ccc2c(c1)[nH]c(=O)c1ccccc12 | inconclusive: 0.231 µM [falling, full curve] | – |
| O=C1c2ccccc2NC(c2ccc(-c3cccc(F)c3)o2)N1O (stereo unspecified) | – | inactive: 5.97% |
| Cc1ccc(NC(=O)c2cc(S(=O)(=O)N3CCOCC3)c(Br)s2)cc1 | inconclusive: 20.6 µM [falling, partial curve, poor fit] | – |
| O=C(NCC1CCN(Cc2cccc(Cl)c2)CC1)C1CCCN(c2ncnc3c2nc2n3CCCCC2)C1 (stereo unspecified) | inconclusive: 13 µM [falling, partial curve, poor fit] | – |
| CC(C)N(C(=O)[C@H]1C[C@H](CC(=O)NCCC2=CCCCC2)C(=O)N2CCc3c([nH]c4cc(CCC(=O)N(C)C)ccc34)[C@]12C)C(C)C | – | inactive: 5.78% |
| Cc1ccc(C(=O)O/N=C/c2c(N3CCOCC3)n(C)c3ccccc23)cc1 | inconclusive: 3.26 µM [falling, full curve, poor fit] | – |
| CCOc1ccc(CCNC(=O)c2ccc(C)c(-n3cnc4cccnc43)c2)cc1 | – | inactive: -0.813% |
| COc1cc(NC(=O)c2ccc(F)cc2)c(OC)cc1NC(=O)CN1CCCCC1 | inconclusive: 1.64 µM [falling, full curve, poor fit] | – |
| Cn1c(=O)n(C)c2cc(NS(=O)(=O)c3ccccc3[N+](=O)[O-])ccc21 | inconclusive: 1.3 µM [falling, partial curve] | – |
| Cc1ccc2c(c1)C(c1ccncc1)=NNC(c1ccc(F)cc1)=N2 | inconclusive: 23.1 µM [activator, single point] | – |
| CCc1noc(C)c1C(=O)N1CCC(CCC(=O)Nc2cccc(OC)c2)CC1 | inconclusive: 29.1 µM [falling, single point] | – |
| Cn1c(Cc2cccc3ccccc23)nnc1SCC(=O)N1CCN(c2cccc(Cl)c2)CC1 | active: 10.3 µM | – |
| O=C(Nc1cccc(F)c1)c1ccc2ncsc2c1 | inconclusive: 4.61 µM [activator, partial curve] | – |
| CCOC(=O)c1ccc2nc(NC(=O)c3ccco3)sc2c1 | inconclusive: 2.06 µM [activator, full curve] | – |

| SMILES | Potency | activity change, negative = inhibition |
| --- | --- | --- |
| CN(C)CCNc1nc2sc3c(c2c(=O)n1CCc1ccccc1)CCCCC3 | – | inactive: -11.9% |
| Cc1ccc(SCC(=O)Nc2ccc3oc(-c4ccc(F)cc4)nc3c2)cc1 | – | inactive: 13.8% |
| COc1ccc(C(=O)NCc2nnc(SCC(=O)Nc3ccc(C)cc3)n2-c2ccccc2)cc1 | inconclusive: 0.366 µM [activator, full curve] | – |
| CCc1nc2nc(C)cc(Nc3cc(Cl)ccc3OC)n2n1 | inconclusive: 4.61 µM [falling, partial curve, poor fit] | – |
| COc1ccc(-c2csc(NC(=O)c3ccc(OCC(=O)N4CCOCC4)c(OC)c3)n2)cc1 | inconclusive: 29.1 µM [falling, single point] | – |
| CC(C)(C)NC(=O)CSc1nc2cc(S(=O)(=O)N3CCCCC3)ccc2o1 | inconclusive: 29.1 µM [falling, single point] | – |
| Cc1ccc(S(=O)(=O)N2CCC(c3nnc(-c4cccc(C)c4)o3)CC2)cc1 | inconclusive: 32.6 µM [falling, single point] | – |
| CCC(C(=O)NCc1cccc(C)c1)n1nc(C)c2c(C)n(-c3ccccc3)nc2c1=O (stereo unspecified) | active: 20.6 µM | – |
| CC1CC(C)CN(C(=O)c2cc(-c3ccncc3)nc3ccccc23)C1 (stereo unspecified) | inconclusive: 8.2 µM [falling, partial curve, poor fit] | – |
| O=C(CSc1nc2ccccc2o1)N/N=C/c1ccc(O)c(O)c1 | inconclusive: 32.6 µM [falling, single point] | – |
| CC(C)NC(=O)COC(=O)c1ccc(Cl)c(S(N)(=O)=O)c1 | inconclusive: 2.59 µM [falling, partial curve, poor fit] | – |
| CCOc1ccc(CNC(=O)CCc2c(C)nn(-c3ccc(N4CCOCC4)nn3)c2C)cc1 | inconclusive: 0.092 µM [activator, full curve, poor fit] | – |
| COc1cc(Cl)c(C)cc1NC(=O)CSc1nc2ccccc2o1 | inconclusive: 18.4 µM [falling, partial curve, poor fit] | – |
| c1ccc2oc(-c3csc(NCC4CCCO4)n3)cc2c1 (stereo unspecified) | inconclusive: 2.06 µM [activator, full curve] | – |
| CCn1cc(C(=O)NCc2ccco2)c(=O)c2cc(S(=O)(=O)N3CCC(C)CC3)ccc21 | inconclusive: 20.6 µM [falling, single point] | – |
| Cc1ccc2nc(-c3ccco3)c(Nc3ccccc3)n2c1 | inconclusive: 4.61 µM [activator, partial curve] | – |
| CC1(C)CCc2cc(-c3ccnc(=S)[nH]3)ccc2O1 | inconclusive: 1.64 µM [activator, full curve] | – |
| COc1ccc2oc(=O)cc(CN3CCN(C(=O)c4ccccc4Br)CC3)c2c1 | – | inactive: 7.17% |
| CC1CCN(c2nn3c(=O)c(C(=O)NCCc4ccc(Cl)cc4)cnc3s2)CC1 | – | inactive: 0% |
| CCOc1cc(CN2CCN(c3cccc(C(F)(F)F)c3)CC2)ccc1O | inconclusive: 2.06 µM [falling, full curve, poor fit] | – |

Another view of some results above.
SMILES | Potency | activity change, negative = inhibition
Cc1ccc(C(=O)O/N=C/c2c(N3CCOCC3)n(C)c3ccccc23)cc1 | inconclusive: 3.26 µM [falling, full curve, poor fit] | –
CCOc1ccc(CCNC(=O)c2ccc(C)c(-n3cnc4cccnc43)c2)cc1 | – | inactive: -0.813%
